Data from PMC2808246, “Mycobacterial Nucleoside Diphosphate Kinase Blocks Phagosome Maturation in Murine Raw 264.7 Macrophages” (PLoS ONE, 2010).
Results are given in words; binding and its absence hold for the method and conditions named. Some results given as binding are weak or reduced against the parent protein; the word gives no strength. Sequences can lack the tags named with a protein.

Sequences of proteins named here, by UniProt entry; tags and fusion partners are left off.
UniProt P20339: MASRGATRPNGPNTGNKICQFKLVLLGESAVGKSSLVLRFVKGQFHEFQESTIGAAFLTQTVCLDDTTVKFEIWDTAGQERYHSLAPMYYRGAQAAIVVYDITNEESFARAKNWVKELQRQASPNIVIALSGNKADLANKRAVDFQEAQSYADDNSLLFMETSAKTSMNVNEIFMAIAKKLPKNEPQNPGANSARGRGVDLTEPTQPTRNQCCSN
UniProt P51149: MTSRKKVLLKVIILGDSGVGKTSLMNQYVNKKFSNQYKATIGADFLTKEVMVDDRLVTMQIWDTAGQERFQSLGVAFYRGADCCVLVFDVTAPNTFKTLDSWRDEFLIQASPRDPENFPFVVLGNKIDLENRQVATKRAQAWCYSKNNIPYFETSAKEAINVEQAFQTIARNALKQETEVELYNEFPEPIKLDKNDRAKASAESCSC

Key:
[1] = molecular target: T1, Mycobacterium tuberculosis nucleoside diphosphate kinase (Ndk), recombinant (Mycobacterium tuberculosis) (UniProt P9WJH7); experiment: ELISA; microplates coated with 10 µg/ml Mtb or M. smegmatis Ndk (or control BSA, subtracted); 1 h with increasing concentrations of Rab5 or Rab7 preloaded with 1 mM GTP (50 mM HEPES pH 7.4, 50 mM NaCl, 0.1 mM DTT, 5 mM EDTA, 1 mg/ml BSA); detected with rabbit anti-Rab5 or anti-Rab7 and anti-rabbit-HRP, A450; both purified
T1 sequence: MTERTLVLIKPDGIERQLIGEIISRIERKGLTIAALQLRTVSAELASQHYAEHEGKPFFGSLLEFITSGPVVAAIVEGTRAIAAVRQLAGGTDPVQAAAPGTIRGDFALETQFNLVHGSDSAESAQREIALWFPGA

[2] = molecular target: T2, Mycobacterium smegmatis nucleoside diphosphate kinase (Ndk), recombinant (Mycobacterium smegmatis) (UniProt O85501); experiment: as above
T2 sequence: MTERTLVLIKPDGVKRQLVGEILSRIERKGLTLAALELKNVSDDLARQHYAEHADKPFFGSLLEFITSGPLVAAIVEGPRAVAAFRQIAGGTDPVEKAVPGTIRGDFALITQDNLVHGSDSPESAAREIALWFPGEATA

[3] = molecular target: T1, Mycobacterium tuberculosis nucleoside diphosphate kinase (Ndk), recombinant (Mycobacterium tuberculosis); experiment: co-IP; recombinant Ndk (3 µg) and GTP-loaded Rab5 or Rab7 (3 µg) in PBS, 1 h at 4°C; anti-Ndk antibodies (1:100) and protein A agarose beads; western blot with anti-Ndk and anti-Rab5 or anti-Rab7; both purified

Measured: binding

Rab5a GTPase, recombinant, GTP-loaded (from UniProt P20339 1-215)
binds: all assays above

Rab7 GTPase, recombinant, GTP-loaded (from UniProt P51149 1-207)
binds: all assays above
